Consider 23 compounds from PubChem BioAssay AID328 (DTP/NCI, 2004).

The list shows only some results of the screen, not a fair sample: it gathers tests that were run many times, whatever their T/C, doses with no T/C, and many T/C values between a quarter and a half above the control. Further doses and runs are listed elsewhere. T/C gives the treated animals as a percentage of the vehicle group. Some entries give survivors of the animals treated and no T/C: the source holds a T/C of zero for them, seemingly a mark for toxic or unscored doses. Some survivor counts are full or nearly so, which does not show that the dose was tolerated: survival well below the control is almost never listed, so the zero probably covers shortened survival too. Survivors were counted at the toxicity check, usually on the fifth day, unless a day is given; later deaths do not show. Schedule codes are those of the source, read here as Q, the interval in days (D) or hours (H), X, the number of doses. Some doses were run more than once; the results are listed from low to high. Where survival is the endpoint, this PubChem deposit counts one and a half times the control or more as active, and values a quarter to a half above the control carry no call in these data; other NCI protocols may use other cut-offs. Signs of the kind (2×) count equal records among those shown. Some T/C values are followed by the survivors on the day toxicity was checked, most often the fifth; without a count, all were alive then. Positions of bridges follow the written chain, without caps; N, C: chain ends. Non-standard residues stand in square brackets, D forms with d. Residues, ends and D or L forms follow the SMILES beside them. Aib = CC(C)(N)C(=O)O

The test system of the experiment is BDF1 mice, P388 leukemia ip, median survival T/C. Kind of experiment: NCI In Vivo Anticancer Drug Screen. Data for tumor model P388 Leukemia (intraperitoneal) in B6D2F1 (BDF1) mice. As to conditions: T/C endpoint: median survival time, higher T/C = longer survival. The method, boiled down: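 In tumour-bearing mice, survival after compound treatment is set against the vehicle group and given as a quotient.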

[1] abbreviates: dose: 12.5 mg/kg/injection, schedule: Q01DX009 (ip), vehicle: saline.
The mark [2] stands for this setting: dose: 25.0 mg/kg/injection, schedule: Q01DX009 (ip), vehicle: saline.
Setting [3] is: dose: 6.25 mg/kg/injection, schedule: Q01DX009 (ip), vehicle: saline.
The mark [4] stands for this setting: dose: 400.0 mg/kg/injection, schedule: Q04DX003 (ip), vehicle: Klucel (hydroxypropylcellulose) (HPC).
Where [5] appears, read: dose: 50.0 mg/kg/injection, schedule: Q01DX009 (ip), vehicle: saline with Tween-80.
[6] abbreviates: dose: 100.0 mg/kg/injection, schedule: Q01DX009 (ip), vehicle: saline with Tween-80.
Where [7] appears, read: dose: 200.0 mg/kg/injection, schedule: Q04DX003 (ip), vehicle: Klucel (hydroxypropylcellulose) (HPC).
Setting [8] is: dose: 50.0 mg/kg/injection, schedule: Q01DX009 (ip), vehicle: saline.
[9] abbreviates: dose: 100.0 mg/kg/injection, schedule: Q01DX009 (ip), vehicle: saline.
Setting [10] is: dose: 200.0 mg/kg/injection, schedule: Q01DX009 (ip), vehicle: saline.
Setting [11] is: dose: 3.0 mg/kg/injection, schedule: Q01DX009 (ip), vehicle: saline.
Where [12] appears, read: dose: 200.0 mg/kg/injection, schedule: Q01DX009 (ip), vehicle: saline with Tween-80.
Where [13] appears, read: dose: 25.0 mg/kg/injection, schedule: Q01DX009 (ip), vehicle: saline with Tween-80.

With `CC(C)CC1NC(=O)CNC(=O)C(C)(C)NC(=O)C(C(C)C)NC(=O)C(C)(C)NC(=O)C(CCC(N)=O)NC(=O)C(C)NC(=O)C(C)(C)NC(=O)C(C)NC(=O)C(C)(C)NC(=O)C2CCCN2C(=O)CCC(C(=O)NC(CCC(N)=O)C(=O)O)NC(=O)C(C)(C)NC(=O)C(C)(C)NC(=O)C(C(C)C)NC(=O)C2CCCN2C(=O)C(C)(C)NC1=O` (stereo not drawn) (P[Aib]A[Aib]AQ[Aib]V[Aib]GL[Aib]PV[Aib][Aib]EQ-OH; lactam N-17; configuration not given here), the survivor count is reported as 3 of 6 (dose: 5.0 mg/kg/injection, schedule: Q01DX009 (ip), vehicle: water) and 0 of 6 (dose: 10.0 mg/kg/injection, schedule: Q01DX009 (ip), vehicle: water).
On to `C(=N\Nc1nc2ccccc2o1)/c1ccncc1`, for which, where the note is “dose: 200.0 mg/kg/injection, schedule: Q01DX009 (ip), vehicle: Klucel (hydroxypropylcellulose) (HPC)”, the T/C was 125 % of control.
In the case of `N#CN=C([S-])[S-].N#CN=C([S-])[S-].[Cu]`, the survivor count reads like this: under setting [1], 5 of 6; under setting [2], 2 of 6; (dose: 25.0 mg/kg/injection, schedule: Q04DX003 (ip), vehicle: saline) 1 of 6.
As for `O=NNc1ccccn1`, the T/C under setting [3] was 125 % of control.
For `CC(=O)Nc1ccc(S(=O)(=O)N(CCO)c2ccccc2)cc1`, the survivor count runs as follows: (dose: 100.0 mg/kg/injection, schedule: Q04DX003 (ip), vehicle: Klucel (hydroxypropylcellulose) (HPC)) 6 of 6; under setting [4], 6 of 6.
Consider `Oc1c(Cl)c(Cl)c(Cl)c(Cl)c1Cl` (tested in a mixture with another compound), for which the T/C under setting [5] is 127 % of control. The survivor count under setting [6] is 4 of 6.
Consider `Cc1cc(O)c(NCCCN(C)C)c2c(=O)c3ccccc3sc12`, for which, under setting [6], the T/C is 126 % of control.
Turning to `CN(C)c1cc2nc[nH]c(=O)c2cc1[N+](=O)[O-]`, the survivor count by setting is: under setting [7], 0 of 6; under setting [4], 0 of 6.
Turning to `Cc1cc(C)[s+]s1`, the survivor count is, setting by setting: (dose: 0.39 mg/kg/injection, schedule: Q01DX009 (ip), vehicle: water) 6 of 6; (dose: 1.56 mg/kg/injection, schedule: Q01DX009 (ip), vehicle: water) 5 of 6; under setting [3], 6 of 6; under setting [1], 6 of 6; under setting [2], 6 of 6; under setting [8], 6 of 6. The survivor count was 1 of 6 under setting [9] and 2 of 6 under setting [10].
`CCN(CC)c1ccc([N+](=O)[O-])c2no[n+]([O-])c12`: the survivor count (dose: 140.0 mg/kg/injection, schedule: Q01DX009 (ip), vehicle: saline with Tween-80) is 1 of 7.
As to `ClCc1ccc(CCl)cc1`, the T/C reads like this: (dose: 14.06 mg/kg/injection, schedule: Q01DX009 (ip), vehicle: Klucel (hydroxypropylcellulose) (HPC)) 125 % of control; (dose: 28.12 mg/kg/injection, schedule: Q01DX009 (ip), vehicle: Klucel (hydroxypropylcellulose) (HPC)) 140 % of control. The survivor count is 6 of 6 (dose: 56.25 mg/kg/injection, schedule: Q01DX009 (ip), vehicle: Klucel (hydroxypropylcellulose) (HPC)); 5 of 6 (dose: 112.5 mg/kg/injection, schedule: Q01DX009 (ip), vehicle: Klucel (hydroxypropylcellulose) (HPC)); 1 of 6 (dose: 225.0 mg/kg/injection, schedule: Q01DX009 (ip), vehicle: Klucel (hydroxypropylcellulose) (HPC)).
On to `COC(=O)NC1=C(N2CC2)C(=O)C(NC(=O)OC)=C(N2CC2)C1=O`, for which the survivor count is 6 of 6 (dose: 1.5 mg/kg/injection, schedule: Q01DX009 (ip), vehicle: saline); 6 of 6 under setting [11]; 4 of 6 and 6 of 6 (dose: 6.0 mg/kg/injection, schedule: Q01DX009 (ip), vehicle: saline).
In the case of `COCC1OC(OC2OCC3OC4(OCC(O)(C(C)OC)C5OCOC54)OC3C2OC)C(OC)C(O)C1OC1OC(C)C(OC)C(OC2OC(C)C3OC4(CC(O)C(OC5CC(OC6CC(C)([N+](=O)[O-])C(OC)C(C)O6)C(OC(=O)c6c(C)c(Cl)c(O)c(Cl)c6OC)C(C)O5)C(C)O4)OC3(C)C2O)C1O` (stereo not drawn), the T/C was 127 % of control under setting [2], 130 % of control (2×) under setting [8] and 139 % of control under setting [9]. In addition, the survivor count is, setting by setting: under setting [10], 2 of 6; (dose: 400.0 mg/kg/injection, schedule: Q01DX009 (ip), vehicle: saline) 2 of 6.
`S=c1sc(-c2ccccc2)c[se]1`: where the note is “dose: 100.0 mg/kg/injection, schedule: Q01DX009 (ip), vehicle: saline + Tween-80 + alcohol”, the survivor count is given as 5 of 6.
For the compound `Cc1cc(C)c2nccc(/C=C/c3ccc(N(C)C)cc3)c2c1`, the T/C under setting [12] was 127 % of control.
For `CCN(CC)Cc1nc2nc(Cl)c(Cl)nc2[nH]1`, the survivor count was 5 of 6 (dose: 12.5 mg/kg/injection, schedule: Q04DX003 (ip), vehicle: saline with Tween-80); 0 of 6 (dose: 100.0 mg/kg/injection, schedule: Q04DX003 (ip), vehicle: saline with Tween-80); 0 of 6 (dose: 200.0 mg/kg/injection, schedule: Q04DX003 (ip), vehicle: saline with Tween-80).
As for `CN(C)N=Nc1ccccc1`, the survivor count runs as follows: (dose: 62.5 mg/kg/injection, schedule: Q01DX009 (ip), vehicle: Klucel (hydroxypropylcellulose) (HPC)) 4 of 6; (dose: 125.0 mg/kg/injection, schedule: Q01DX009 (ip), vehicle: Klucel (hydroxypropylcellulose) (HPC)) 0 of 6; (dose: 187.0 mg/kg/injection, schedule: Q04DX003 (ip), vehicle: Klucel (hydroxypropylcellulose) (HPC)) 0 of 6; (dose: 187.0 mg/kg/injection, schedule: Q04DX003 (ip), vehicle: saline) 2 of 6; (dose: 250.0 mg/kg/injection, schedule: Q04DX003 (ip), vehicle: Klucel (hydroxypropylcellulose) (HPC)) 0 of 6. The T/C is, setting by setting: (dose: 82.0 mg/kg/injection, schedule: Q04DX003 (ip), vehicle: saline) 131 % of control; (dose: 125.0 mg/kg/injection, schedule: Q04DX003 (ip), vehicle: Klucel (hydroxypropylcellulose) (HPC)) 129 [5 of 6 alive] and 140 % of control.
For `S=C1NC2=C(CCC/C2=C\c2ccccc2)C(c2ccccc2)N1` (stereo not drawn), the survivor count under setting [12] was 6 of 6.
For the compound `CCC[CH2][Sn]([CH2]CCC)([O]C(C)=O)[O]C(C)=O`, the T/C is, setting by setting: under setting [11], 144 % of control; (dose: 6.15 mg/kg/injection, schedule: Q01DX009 (ip), vehicle: saline) 145 % of control. The survivor count is, setting by setting: under setting [1], 3 of 6; under setting [13], 2 of 6; under setting [2], 0 of 6 and 1 of 6; under setting [8], 0 of 6.
Consider `COc1cc(C=Nc2cc(Cl)c(Cl)c(Cl)c2)ccc1N(CCCl)CCCl`, for which the survivor count is on record as 6 of 6 (dose: 50.0 mg/kg/injection, schedule: Q01DX009 (ip), vehicle: Klucel (hydroxypropylcellulose) (HPC)); 6 of 6 (dose: 100.0 mg/kg/injection, schedule: Q01DX009 (ip), vehicle: Klucel (hydroxypropylcellulose) (HPC)); 6 of 6 (dose: 150.0 mg/kg/injection, schedule: Q04DX003 (ip), vehicle: Klucel (hydroxypropylcellulose) (HPC)); 6 of 6 under setting [7]; 5 of 6 under setting [4].
In the case of `CSC(=S)NN=C1CCCC1`, the survivor count reads like this: under setting [5], 4 of 6; under setting [6], 1 of 6; under setting [12], 0 of 6.
`ClCCCCCCCCCCc1ccccc1`: the T/C (dose: 400.0 mg/kg/injection, schedule: Q04DX003 (ip), vehicle: saline with Tween-80) is 135 and 145 % of control.
Consider `CN(C)c1ccc(N=C2C=CC(=O)C=C2)cc1`, for which the survivor count reads like this: under setting [13], 0 of 6; under setting [5], 0 of 6; under setting [6], 0 of 6; under setting [12], 0 of 6.
